Results are given in words; binding and its absence hold for the method and conditions named. For some of these results: Binding seen in cells or lysates may run through a third protein. Some results given as binding are weak or reduced against the parent protein; the word gives no strength. For some of these results: Where a sequence is shown, tags or fusion partners need not be part of it. Blank lines part the entries; values can stand above or below the molecule they belong to.
How the values were obtained:
recombinant GST-Uhrf1 = biological target: T1, recombinant GST-Uhrf1 (UniProt Q8VDF2); test: pull-down; purified GST-Uhrf1 incubated with SETD1A-198H (0.15 and 0.3 ug) in 25 mM HEPES, 100 mM NaCl, 0.02% Triton X-100, 5% glycerol, 5% BSA, 1 mM DTT; Uhrf1 pulled down with an Uhrf1 antibody and agarose beads; western blot with a GST antibody; both purified
T1 sequence: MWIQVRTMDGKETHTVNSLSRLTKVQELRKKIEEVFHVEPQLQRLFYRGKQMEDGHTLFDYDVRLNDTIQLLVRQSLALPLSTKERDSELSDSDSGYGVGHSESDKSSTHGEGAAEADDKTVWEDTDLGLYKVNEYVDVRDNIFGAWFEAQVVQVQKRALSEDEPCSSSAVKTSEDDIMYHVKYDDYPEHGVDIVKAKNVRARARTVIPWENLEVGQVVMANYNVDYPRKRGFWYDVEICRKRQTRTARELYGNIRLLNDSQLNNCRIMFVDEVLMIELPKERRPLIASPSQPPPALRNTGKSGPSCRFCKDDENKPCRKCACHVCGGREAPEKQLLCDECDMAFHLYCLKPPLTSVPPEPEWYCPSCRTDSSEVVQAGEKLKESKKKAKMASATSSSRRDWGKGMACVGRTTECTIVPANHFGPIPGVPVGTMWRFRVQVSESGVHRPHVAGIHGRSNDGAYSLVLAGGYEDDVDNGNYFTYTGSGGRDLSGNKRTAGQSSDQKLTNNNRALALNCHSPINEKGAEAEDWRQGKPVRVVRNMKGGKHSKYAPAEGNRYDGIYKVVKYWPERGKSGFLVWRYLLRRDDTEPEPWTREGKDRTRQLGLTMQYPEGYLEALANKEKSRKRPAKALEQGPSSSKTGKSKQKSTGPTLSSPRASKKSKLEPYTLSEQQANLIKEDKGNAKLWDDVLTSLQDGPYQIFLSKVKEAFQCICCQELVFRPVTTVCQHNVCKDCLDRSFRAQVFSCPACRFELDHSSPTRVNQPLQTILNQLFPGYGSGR

Protein sequences, listed by entry. Tags and fused reporters are not part of them. Lines headed by an entry give the natural chain unless they say otherwise; changes in a name come on top.
UniProt O15047: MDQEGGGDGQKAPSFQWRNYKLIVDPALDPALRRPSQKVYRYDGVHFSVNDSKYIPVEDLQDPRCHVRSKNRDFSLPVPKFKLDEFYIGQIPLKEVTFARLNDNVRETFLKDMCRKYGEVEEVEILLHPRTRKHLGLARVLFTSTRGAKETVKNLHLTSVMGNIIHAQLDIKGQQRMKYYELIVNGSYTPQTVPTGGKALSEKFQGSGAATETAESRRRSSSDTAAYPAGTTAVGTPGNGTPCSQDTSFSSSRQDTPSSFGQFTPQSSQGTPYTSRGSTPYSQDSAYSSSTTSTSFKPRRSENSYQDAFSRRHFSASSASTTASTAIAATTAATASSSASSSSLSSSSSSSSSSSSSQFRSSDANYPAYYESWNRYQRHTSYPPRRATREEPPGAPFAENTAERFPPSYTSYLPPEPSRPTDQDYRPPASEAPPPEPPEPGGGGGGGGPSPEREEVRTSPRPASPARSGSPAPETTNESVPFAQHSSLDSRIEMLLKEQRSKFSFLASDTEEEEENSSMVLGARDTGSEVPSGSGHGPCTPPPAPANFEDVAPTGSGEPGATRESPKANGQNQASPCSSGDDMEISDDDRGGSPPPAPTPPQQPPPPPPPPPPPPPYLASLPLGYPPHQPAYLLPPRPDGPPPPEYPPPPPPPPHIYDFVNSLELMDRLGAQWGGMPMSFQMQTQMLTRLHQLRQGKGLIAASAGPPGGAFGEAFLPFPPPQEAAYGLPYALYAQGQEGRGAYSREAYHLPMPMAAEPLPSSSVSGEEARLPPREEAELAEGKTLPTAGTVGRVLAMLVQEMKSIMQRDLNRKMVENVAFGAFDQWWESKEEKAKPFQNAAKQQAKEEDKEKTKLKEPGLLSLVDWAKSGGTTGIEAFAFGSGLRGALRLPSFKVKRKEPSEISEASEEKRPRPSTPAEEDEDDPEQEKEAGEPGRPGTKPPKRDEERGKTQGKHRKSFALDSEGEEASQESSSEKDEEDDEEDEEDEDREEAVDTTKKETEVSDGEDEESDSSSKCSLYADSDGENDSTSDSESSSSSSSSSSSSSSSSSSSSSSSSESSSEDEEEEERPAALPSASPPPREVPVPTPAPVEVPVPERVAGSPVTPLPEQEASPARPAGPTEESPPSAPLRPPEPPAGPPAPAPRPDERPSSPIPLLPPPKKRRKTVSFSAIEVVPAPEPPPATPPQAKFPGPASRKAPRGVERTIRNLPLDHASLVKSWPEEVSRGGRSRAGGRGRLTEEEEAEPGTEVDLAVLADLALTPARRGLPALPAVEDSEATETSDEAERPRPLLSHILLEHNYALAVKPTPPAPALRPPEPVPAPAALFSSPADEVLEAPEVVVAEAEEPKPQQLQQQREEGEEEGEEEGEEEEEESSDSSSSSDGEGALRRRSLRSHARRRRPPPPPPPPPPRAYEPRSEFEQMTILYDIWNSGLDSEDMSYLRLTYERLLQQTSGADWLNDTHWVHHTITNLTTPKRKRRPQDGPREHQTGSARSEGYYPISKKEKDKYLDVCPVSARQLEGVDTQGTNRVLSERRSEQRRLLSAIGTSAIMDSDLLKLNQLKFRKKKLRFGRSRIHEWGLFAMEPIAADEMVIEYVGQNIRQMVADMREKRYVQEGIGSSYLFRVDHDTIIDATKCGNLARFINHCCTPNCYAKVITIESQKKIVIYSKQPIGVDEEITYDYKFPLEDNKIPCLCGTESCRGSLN
UniProt P48432: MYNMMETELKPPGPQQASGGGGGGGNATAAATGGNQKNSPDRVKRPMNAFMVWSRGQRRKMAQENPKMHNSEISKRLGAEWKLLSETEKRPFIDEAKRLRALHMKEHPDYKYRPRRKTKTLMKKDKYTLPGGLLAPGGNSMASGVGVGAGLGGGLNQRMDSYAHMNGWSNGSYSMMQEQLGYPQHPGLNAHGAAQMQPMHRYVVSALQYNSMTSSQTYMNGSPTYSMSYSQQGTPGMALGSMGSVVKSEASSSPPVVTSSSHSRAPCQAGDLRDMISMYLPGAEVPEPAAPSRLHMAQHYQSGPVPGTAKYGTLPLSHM

[1] = biological target: T2, Uhrf1 (co-IP of Fig. 3c and Fig. 5a) (UniProt Q8VDF2); test: co-IP; series of SETD1A constructs with given deletions, co-IP with Uhrf1 (Fig. 3c); cells not given
T2 sequence: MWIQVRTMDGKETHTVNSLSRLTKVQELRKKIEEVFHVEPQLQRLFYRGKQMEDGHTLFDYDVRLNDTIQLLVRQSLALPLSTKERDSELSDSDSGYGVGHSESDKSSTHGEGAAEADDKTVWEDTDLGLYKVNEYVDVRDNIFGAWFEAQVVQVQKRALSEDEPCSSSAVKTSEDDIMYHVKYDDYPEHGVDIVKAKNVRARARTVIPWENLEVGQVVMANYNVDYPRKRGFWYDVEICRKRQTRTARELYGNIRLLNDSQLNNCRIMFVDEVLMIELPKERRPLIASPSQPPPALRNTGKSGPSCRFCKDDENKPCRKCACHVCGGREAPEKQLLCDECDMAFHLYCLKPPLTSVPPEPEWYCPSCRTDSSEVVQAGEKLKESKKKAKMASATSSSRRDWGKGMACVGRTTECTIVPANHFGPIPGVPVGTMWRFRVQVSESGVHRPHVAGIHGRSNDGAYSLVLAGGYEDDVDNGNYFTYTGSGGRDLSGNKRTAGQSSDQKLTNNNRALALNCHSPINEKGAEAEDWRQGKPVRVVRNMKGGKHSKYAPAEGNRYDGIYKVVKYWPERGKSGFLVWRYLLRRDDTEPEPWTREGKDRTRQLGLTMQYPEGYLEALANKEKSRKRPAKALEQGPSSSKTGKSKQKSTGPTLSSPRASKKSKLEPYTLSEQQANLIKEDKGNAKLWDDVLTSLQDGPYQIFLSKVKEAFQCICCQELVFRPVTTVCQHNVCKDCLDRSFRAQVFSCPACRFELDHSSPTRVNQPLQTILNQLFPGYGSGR

[2] = biological target: T2, Uhrf1 (co-IP of Fig. 3c and Fig. 5a); test: co-IP; co-IP of Uhrf1 with core pluripotent factors (Fig. 5a); cells not given
[3] = biological target: T2, Uhrf1 (co-IP of Fig. 3c and Fig. 5a); test: as above; remark: listed apart in the source

binding (recombinant GST-Uhrf1): binds
Molecule: GST-tagged recombinant human partial SETD1A protein (SETD1A-198H, amino acid 1418-end) (from UniProt O15047 1418-1707) (domain or fragment)

binding [1]: binds
Molecule: SETD1A (parent of the deletion constructs of Fig. 3c) (from UniProt O15047 1-1707) (enzyme)

binding [2]: binds weakly
Molecule: Sox2 (from UniProt P48432 1-319)

binding [3]: no binding
B1: Nanog (protein, UniProt Q80Z64 1-305)
chain: MSVGLPGPHSLPSSEEASNSGNASSMPAVFHPENYSCLQGSATEMLCTEAASPRPSSEDLPLQGSPDSSTSPKQKLSSPEADKGPEEEENKVLARKQKMRTVFSQAQLCALKDRFQKQKYLSLQQMQELSSILNLSYKQVKTWFQNQRMKCKRWQKNQWLKTSNGLIQKGSAPVEYPSIHCSYPQGYLVNASGSLSMWGSQTWTNPTWSSQTWTNPTWNNQTWTNPTWSSQAWTAQSWNGQPWNAAPLHNFGEDFLQPYVQLQQNFSASDLEVNLEATRESHAHFSTPQALELFLNYSVTPPGEI
